Source: article PMC5741267
Results are given in words; binding and its absence hold for the method and conditions named. Some entries that bind do so weakly or less than the wild type. Sequences can lack the tags named with a protein.

Columns and labels:
[1] = molecular target: T1, PUF repeats of FBF-1 (a.a. 121-614) fused to LexA DNA binding domain (C. elegans) (UniProt Q9N5M6); experiment: two-hybrid; SYGL-1 or LST-1 fused to Gal4 AD, PUF repeats of FBF-1 or FBF-2 fused to LexA BD; L40-ura yeast; growth on SD -Leu -Trp -His with 50 mM 3-AT, 4 days at 30°C (HIS3 reporter)
T1 sequence: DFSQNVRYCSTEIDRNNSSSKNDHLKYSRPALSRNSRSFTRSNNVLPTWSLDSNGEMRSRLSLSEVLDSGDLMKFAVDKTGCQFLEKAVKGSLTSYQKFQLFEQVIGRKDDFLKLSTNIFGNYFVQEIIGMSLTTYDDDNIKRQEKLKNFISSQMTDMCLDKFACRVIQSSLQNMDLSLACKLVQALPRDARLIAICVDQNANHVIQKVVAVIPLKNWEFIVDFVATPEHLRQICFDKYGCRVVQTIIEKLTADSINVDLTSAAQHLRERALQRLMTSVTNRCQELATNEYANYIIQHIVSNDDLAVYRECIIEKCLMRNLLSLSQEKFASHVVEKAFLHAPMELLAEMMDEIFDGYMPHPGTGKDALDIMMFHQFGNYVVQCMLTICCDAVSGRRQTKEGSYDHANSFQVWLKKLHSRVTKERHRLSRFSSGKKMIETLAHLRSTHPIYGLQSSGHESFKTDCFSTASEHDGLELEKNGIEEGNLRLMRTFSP

[2] = molecular target: T2, PUF repeats of FBF-2 (a.a. 121-632) fused to LexA DNA binding domain (C. elegans) (UniProt Q09312); experiment: as above
T2 sequence: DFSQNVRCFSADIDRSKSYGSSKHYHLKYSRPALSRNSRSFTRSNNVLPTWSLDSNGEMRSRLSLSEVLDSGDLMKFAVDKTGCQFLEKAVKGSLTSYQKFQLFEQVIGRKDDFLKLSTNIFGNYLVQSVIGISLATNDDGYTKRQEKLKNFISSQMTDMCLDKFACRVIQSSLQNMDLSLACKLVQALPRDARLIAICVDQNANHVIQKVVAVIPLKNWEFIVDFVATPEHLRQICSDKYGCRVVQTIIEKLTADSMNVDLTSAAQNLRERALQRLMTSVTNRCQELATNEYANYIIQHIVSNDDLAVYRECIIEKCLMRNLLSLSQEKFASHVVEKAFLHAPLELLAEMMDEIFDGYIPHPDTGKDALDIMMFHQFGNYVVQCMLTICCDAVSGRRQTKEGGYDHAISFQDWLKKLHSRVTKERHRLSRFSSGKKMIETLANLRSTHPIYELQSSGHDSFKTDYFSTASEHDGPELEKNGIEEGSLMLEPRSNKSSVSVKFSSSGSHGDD

B1: LST-1 full length (a.a. 1-328) fused to Gal4 activation domain (protein, UniProt P91820 1-328)
chain: MCSTFILPPRRNNCNKSSSTIAYSKSQHEAPKQLLQLRSEIKPLIPLNQPSNFWESSQDSGVLSSLSSSPQQRSGLRSQKLHLTYIEKNKRVRAMIPQQQHYHAFDRPTHYNSRKTSGPPPLMRTPSSGFSSASSSENMFSGLTLSDNENKIHEIMDPSVDVDLDMFLLPDCRYKQPVQPSTSTSRNNVSQISGSSRLNGSTRHVAPIVPKVAMPSELSYANVKRSSGYVDYMPTTYNSNVTSNSSAASVPMSPGTWVRCHYCWESYVKLCQRVANLEPLISCDGPWNWHTLYDMQGRVTCPRLWFAQLDRAGSEMVEQMGHARNVPV
binding [1]: binds | binding [2]: binds
